Measured values from patent US20170114124A1.
Results are given in words; binding and its absence hold for the method and conditions named. In cells and extracts the contact can be indirect. Some binding calls cover weakened binding; strength is not graded here. Sequences can lack the tags named with a protein.

Sequences of proteins named here, by UniProt entry; tags and fusion partners are left off. A change or cut given only in a name is not applied to a line headed by its entry.
UniProt P60953: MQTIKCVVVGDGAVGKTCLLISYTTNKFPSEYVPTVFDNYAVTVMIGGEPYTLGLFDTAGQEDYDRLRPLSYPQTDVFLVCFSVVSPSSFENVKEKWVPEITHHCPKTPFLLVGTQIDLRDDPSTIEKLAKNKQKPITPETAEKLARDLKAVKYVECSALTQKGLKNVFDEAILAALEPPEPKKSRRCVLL

Assays:
[1] = target: myc-tagged Cdc42(S88D/K94P) double mutant (human) (UniProt P60953); assay: GST pull-down
[2] = target: myc-tagged Cdc42(S88D/K94P) double mutant (human) (UniProt P60953); assay: GST pull-down, myc-Cdc42 from HEK293 cells
[3] = target: myc-tagged RhoA (human); assay: GST pull-down, myc-RhoA from HEK293 lysate

Measured: binding

B1: GST-tagged Myo9b RhoGAP domain, wild-type (protein, not shown: a dimerising Fc or GST)
chain: FGVCVDSLTSDKASVPIVLEKLLEHVEMHGLYTEGLYRKSGAANRTRELRQALQTDPAAVKLENFPIHAITGVLKQWLRELPEPLMTFAQYGDFLRAVELPEKQEQLAAIYAVLEHLPEANHNSLERLIFHLVKVALLEDVNRMSPGALAIIFAPCLLRCPDNSDPLTSMKDVLKITTCVEMLIKEQMRKYKVKMEEISQLE
binds: all assays above
